Measurements from PubChem BioAssay (EPA / NIEHS).
“And” between values parts separate entries of the source, which are not always exact repeats. Equal entries are not always repeated. The inconclusive results got no clear call from the source; some entries with a clear call stand among them for comparison. For some assays here: Potencies beside an inconclusive call are fits to weak or partial responses and may not hold up. Some compounds were tested as several samples or in several runs, with calls that do not always agree. The source made the active and inactive calls. Rule for the calls: active = hit-call score of the fitted dose curve at least 0.9, where 1 is the maximum; inconclusive = response in the unintended direction; inactive = score below 0.9.

The chains behind the UniProt entries cited, without tags or fusion partners. Where a name states a change or a piece, a line headed by the entry shows the natural chain unless it says otherwise.
UniProt P19785, whole entry, looked up: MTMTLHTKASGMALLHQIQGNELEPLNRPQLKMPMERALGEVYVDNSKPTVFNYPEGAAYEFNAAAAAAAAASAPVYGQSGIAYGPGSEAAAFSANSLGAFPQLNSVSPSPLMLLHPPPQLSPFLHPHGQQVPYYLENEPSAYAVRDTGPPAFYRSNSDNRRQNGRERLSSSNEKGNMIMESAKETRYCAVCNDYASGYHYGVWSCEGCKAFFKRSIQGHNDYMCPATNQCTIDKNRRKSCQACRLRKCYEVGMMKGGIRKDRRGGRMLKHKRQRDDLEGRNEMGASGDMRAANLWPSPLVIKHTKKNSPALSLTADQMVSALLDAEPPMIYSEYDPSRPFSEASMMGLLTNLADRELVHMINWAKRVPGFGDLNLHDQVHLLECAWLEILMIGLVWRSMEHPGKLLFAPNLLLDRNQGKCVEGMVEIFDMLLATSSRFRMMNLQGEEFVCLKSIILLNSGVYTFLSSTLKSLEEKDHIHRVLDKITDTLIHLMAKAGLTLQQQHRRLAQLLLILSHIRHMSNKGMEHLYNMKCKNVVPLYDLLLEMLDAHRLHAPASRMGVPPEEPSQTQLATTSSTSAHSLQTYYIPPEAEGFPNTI
UniProt P19793: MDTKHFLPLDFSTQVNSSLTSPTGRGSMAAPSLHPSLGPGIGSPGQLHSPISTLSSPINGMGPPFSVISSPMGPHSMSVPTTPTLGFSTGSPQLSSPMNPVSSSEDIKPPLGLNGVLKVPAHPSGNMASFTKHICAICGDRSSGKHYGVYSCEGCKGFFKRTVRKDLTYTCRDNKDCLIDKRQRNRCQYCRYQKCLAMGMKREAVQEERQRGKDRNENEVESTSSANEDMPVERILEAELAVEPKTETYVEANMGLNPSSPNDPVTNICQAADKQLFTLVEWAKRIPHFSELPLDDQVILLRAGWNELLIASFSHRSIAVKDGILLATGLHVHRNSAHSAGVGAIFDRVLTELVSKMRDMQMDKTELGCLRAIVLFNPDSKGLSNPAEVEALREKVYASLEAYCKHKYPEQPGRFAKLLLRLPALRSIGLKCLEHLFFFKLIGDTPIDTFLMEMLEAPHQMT
UniProt P04637, whole entry, looked up: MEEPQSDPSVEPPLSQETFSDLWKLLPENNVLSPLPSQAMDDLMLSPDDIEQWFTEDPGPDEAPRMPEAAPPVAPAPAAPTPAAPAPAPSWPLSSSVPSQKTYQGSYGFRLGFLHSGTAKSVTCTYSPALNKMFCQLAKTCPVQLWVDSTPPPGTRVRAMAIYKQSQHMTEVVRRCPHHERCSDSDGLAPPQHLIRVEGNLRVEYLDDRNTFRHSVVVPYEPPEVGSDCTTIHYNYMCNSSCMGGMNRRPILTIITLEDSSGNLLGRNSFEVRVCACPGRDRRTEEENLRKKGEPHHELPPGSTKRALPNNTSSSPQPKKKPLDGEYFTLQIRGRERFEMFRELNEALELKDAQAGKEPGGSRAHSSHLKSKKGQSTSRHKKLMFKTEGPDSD
UniProt P10275: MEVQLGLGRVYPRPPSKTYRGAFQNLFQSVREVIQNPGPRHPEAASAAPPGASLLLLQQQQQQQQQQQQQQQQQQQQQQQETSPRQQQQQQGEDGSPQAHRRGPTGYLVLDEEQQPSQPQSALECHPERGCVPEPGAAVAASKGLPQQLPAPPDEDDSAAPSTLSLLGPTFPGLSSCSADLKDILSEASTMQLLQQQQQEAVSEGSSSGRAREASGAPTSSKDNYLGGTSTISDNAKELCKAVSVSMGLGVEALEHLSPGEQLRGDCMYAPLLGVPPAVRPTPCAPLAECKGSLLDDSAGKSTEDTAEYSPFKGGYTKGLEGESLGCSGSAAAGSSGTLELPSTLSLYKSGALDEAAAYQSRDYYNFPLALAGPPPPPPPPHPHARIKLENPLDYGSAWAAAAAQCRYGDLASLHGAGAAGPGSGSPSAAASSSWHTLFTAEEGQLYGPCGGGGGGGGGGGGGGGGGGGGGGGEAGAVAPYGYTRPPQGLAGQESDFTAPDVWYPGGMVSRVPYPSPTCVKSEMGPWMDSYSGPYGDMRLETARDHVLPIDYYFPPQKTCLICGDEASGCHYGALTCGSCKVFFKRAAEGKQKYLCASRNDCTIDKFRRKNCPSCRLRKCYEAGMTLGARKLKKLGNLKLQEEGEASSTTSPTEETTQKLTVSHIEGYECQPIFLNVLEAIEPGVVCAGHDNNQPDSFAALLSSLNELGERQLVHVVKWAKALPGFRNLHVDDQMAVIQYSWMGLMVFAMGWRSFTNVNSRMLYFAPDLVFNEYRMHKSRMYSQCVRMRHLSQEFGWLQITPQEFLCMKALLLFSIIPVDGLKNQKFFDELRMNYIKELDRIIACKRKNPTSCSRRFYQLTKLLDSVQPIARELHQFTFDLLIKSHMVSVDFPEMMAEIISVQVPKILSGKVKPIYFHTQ
UniProt Q96RI1: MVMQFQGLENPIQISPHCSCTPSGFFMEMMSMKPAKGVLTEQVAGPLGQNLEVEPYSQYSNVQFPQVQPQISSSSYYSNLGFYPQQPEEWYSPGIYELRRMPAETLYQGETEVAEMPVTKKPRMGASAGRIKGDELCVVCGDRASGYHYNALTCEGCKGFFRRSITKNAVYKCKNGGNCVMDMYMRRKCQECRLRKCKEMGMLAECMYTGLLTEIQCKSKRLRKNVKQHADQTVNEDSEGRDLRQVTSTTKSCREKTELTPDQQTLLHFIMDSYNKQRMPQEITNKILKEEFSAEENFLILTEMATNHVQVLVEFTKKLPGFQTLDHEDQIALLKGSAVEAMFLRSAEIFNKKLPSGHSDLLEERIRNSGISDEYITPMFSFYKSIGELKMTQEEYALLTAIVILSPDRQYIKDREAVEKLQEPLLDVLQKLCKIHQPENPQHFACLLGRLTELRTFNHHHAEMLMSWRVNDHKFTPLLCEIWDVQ
UniProt P37231: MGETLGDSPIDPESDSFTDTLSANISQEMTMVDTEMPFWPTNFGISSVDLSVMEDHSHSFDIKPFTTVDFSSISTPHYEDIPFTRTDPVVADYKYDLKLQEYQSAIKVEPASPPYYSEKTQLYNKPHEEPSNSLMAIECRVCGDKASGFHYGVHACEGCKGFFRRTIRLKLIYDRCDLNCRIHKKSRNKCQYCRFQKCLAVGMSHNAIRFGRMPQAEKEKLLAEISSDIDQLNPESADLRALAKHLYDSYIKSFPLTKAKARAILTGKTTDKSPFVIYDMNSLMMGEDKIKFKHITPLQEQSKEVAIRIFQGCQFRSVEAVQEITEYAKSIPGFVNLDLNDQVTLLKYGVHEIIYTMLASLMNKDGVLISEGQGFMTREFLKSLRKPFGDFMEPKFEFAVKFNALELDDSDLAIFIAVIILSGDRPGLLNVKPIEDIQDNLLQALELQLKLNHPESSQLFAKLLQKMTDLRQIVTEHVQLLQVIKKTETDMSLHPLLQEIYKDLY

Legend:
[1] = biological target: mouse Estrogen Receptor alpha (Era), Esr1 (gene 13982) (UniProt P19785); test: NVS_NR_mERa: NovaScreen (NVS) Nuclear Receptor Binding Assay for mouse Estrogen Receptor alpha (Era) (AID 2283378);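 note: hit means loss of bound radioligand signal relative to DMSO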
Outline: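 Cell-free radioligand binding with extracted mouse Era protein; competitive displacement of radiolabelled ligand, read by filter-based scintillation counting 18 hours after dosing. Loss of signal versus DMSO baseline taken as binding; single screening concentration 25 uM, actives followed in concentration series.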

[2] = biological target: Retinoic acid receptor RXR-alpha (Homo sapiens) (UniProt P19793); test: OT_NURR1_NURR1RXRa_0480: Odyssey Thera (OT) 8-hour HEK293T Protein Complementation Assay for Nurr1/retinoid X receptor (RXR) (AID 2283385)
Outline: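 HEK293T cells expressing Nurr1 and RXRα fused to reporter fragments were dosed with compound for 8 hours. Complex formation was read as fluorescence intensity and analysed as gain of signal against DMSO as baseline.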

[3] = TOX21_p53_BLA_p2_viability: Viability Assessment in the Tox21 HCT-116 p53 Agonism Beta-lactamase Assay, Phase 2 (AID 2283591);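 note: compound exposure lasted 16 h at 37 °C; actives lower the ATP signal meaning cytotoxicity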
Outline: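 Cytotoxicity readout: CellTiter-Glo ATP luminescence, 30 min at room temperature, after the beta-lactamase read. Cells were HCT116 exposed 16 h at 37C to compounds pin-transferred at 217-fold dilution from DMSO stocks.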

[4] = biological target: Cellular tumor antigen p53 (Homo sapiens) (UniProt P04637); test: TOX21_p53_BLA_p2_ratio: Tox21 HCT-116 p53 Agonism Beta-lactamase Assay, Ratio, Phase 2 (AID 2283592)
Outline: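 HCT116 cells carrying a p53-responsive beta-lactamase reporter were plated, incubated 5 h at 37C, then dosed with compounds in DMSO (217-fold dilution) for 16 h. CCF4-AM substrate was added for 2 h at room temperature; the 460/530 nm emission ratio gave gain-of-signal activity relative to DMSO.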

[5] = TOX21_p53_BLA_p3_viability: Viability Assessment in the Tox21 HCT-116 p53 Agonism Beta-lactamase Assay, Phase 3 (AID 2283593);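 note: cells exposed to compound for 16 h before reading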
Outline: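 Cellular ATP was quantified by CellTiter-Glo luminescence, read after 30 min at room temperature. Beforehand, HCT116 cells (4000/well) received compound 5 h post-seeding, 217-fold diluted from DMSO, then incubated 16 h at 37C.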

[6] = TOX21_p53_BLA_p4_viability: Viability Assessment in the Tox21 HCT-116 p53 Agonism Beta-lactamase Assay, Phase 4 (AID 2283597);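 note: hits lower the luminescence signal meaning cytotoxicity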
Outline: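 HCT116 p53-bla cells (4000/well) rested 5 h at 37C, then received compounds in DMSO (217-fold dilution) for 16 h at 37C, 5% CO2. CellTiter-Glo was added after the CCF4-AM read, and luminescence was read after 30 min at room temperature.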

[7] = biological target: Cellular tumor antigen p53 (Homo sapiens) (UniProt P04637); test: TOX21_p53_BLA_p5_ratio: Tox21 HCT-116 p53 Agonism Beta-lactamase Assay, Ratio, Phase 5 (AID 2283599)
Outline: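 Beta-lactamase reporter ratio (blue 460 nm over green 530 nm, 405 nm excitation) after 2 h CCF4-AM loading, in HCT-116 cells exposed 16 h at 37 C to compounds pinned at 217-fold dilution. Increases relative to DMSO baseline scored.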

[8] = TOX21_p53_BLA_p5_viability: Viability Assessment in the Tox21 HCT-116 p53 Agonism Beta-lactamase Assay, Phase 5 (AID 2283600)
Outline: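 Cells were plated at 4000/well, rested 5 h at 37C, then given compounds in DMSO (217-fold dilution) for 16 h at 37C, 5% CO2. Following the CCF4-AM beta-lactamase read, CellTiter-Glo was added and luminescence was read after 30 min at room temperature.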

[9] = biological target: Cellular tumor antigen p53 (Homo sapiens) (UniProt P04637); test: TOX21_p53_BLA_p4_ratio: Tox21 HCT-116 p53 Agonism Beta-lactamase Assay, Ratio, Phase 4 (AID 2283601)
Outline: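 Signal is the blue/green (460nm/530nm) ratio of cleaved versus uncleaved CCF4-AM substrate, read after 2 h substrate loading. Cells were HCT116 carrying the p53-responsive beta-lactamase reporter, dosed 16 h at 37C, 5% CO2; CellTiter-Glo measured in parallel.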

[10] = biological target: Cellular tumor antigen p53 (Homo sapiens) (UniProt P04637); test: TOX21_p53_BLA_p3_ratio: Tox21 HCT-116 p53 Agonism Beta-lactamase Assay, Ratio, Phase 3 (AID 2283596)
Outline: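 HCT116 p53-bla cells (4000/well) given compound in DMSO (217-fold dilution) after 5 h, incubated 16 h at 37C. CCF4-AM substrate 2 h at room temperature; 460/530 nm emission ratio, gain fitted against DMSO.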

[11] = biological target: Retinoic acid receptor RXR-alpha (Homo sapiens) (UniProt P19793); test: OT_NURR1_NURR1RXRa_1440: Odyssey Thera (OT) 24-hour HEK293T Protein Complementation Assay for Nurr1/retinoid X receptor (RXR) (AID 2283386)
Outline: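 HEK293T cells were dosed with compound and read 24 h later by fluorescence intensity in a protein-fragment complementation format, where Nurr1–RXRα interaction reconstitutes a split reporter. Activity was fitted as gain of signal relative to DMSO baseline.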

[12] = ATG_XTT_Cytotoxicity: Cytotoxicity Assessment in the Attagene TRANS-FACTORIAL HepG2 Assay (AID 2283584);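 note: cells exposed to compound for 24 h before reading; active means loss of viability signal versus DMSO baseline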
Outline: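 HepG2 human liver cells, transiently transfected with multiple GAL4-UAS reporter units, were dosed and read at 24 h by XTT as cell number. Loss of signal was fitted relative to DMSO negative control baseline.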

[13] = biological target: Agonist Androgen Response Element (ARE), AR (gene 367) (UniProt P10275); test: OT_AR_ARELUC_AG_1440: Odyssey Thera (OT) 24-hour CHO-K1 Luciferase Assay for Agonist Androgen Response Element (ARE) (AID 2283379)
Outline: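 Agonist mode, 24 h exposure in CHO-K1 ARE-luciferase cells; values reflect luminescence induction over vehicle.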

[14] = biological target: Bile acid receptor (Homo sapiens) (UniProt Q96RI1); test: OT_FXR_FXRSRC1_0480: Odyssey Thera (OT) 8-hour HEK293T Protein-Complementation Assay for Farnesoid X receptor/SRC-1 Co-activator (AID 2283383)
Outline: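 HEK293T cells expressing FXR and SRC-1 fused to reporter fragments were dosed with compound for 8 h; fluorescence from the reconstituted reporter marked co-activator recruitment. Gain of signal was fitted against the DMSO baseline.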

[15] = biological target: Peroxisome proliferator-activated receptor gamma (Homo sapiens) (UniProt P37231); test: OT_PPARg_PPARgSRC1_0480: Odyssey Thera (OT) 8-hour Protein-Complementation Assay for Peroxisome Proliferator-activated Receptor Gamma / SRC-1 Co-activator (AID 2283387);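 note: nuclear to cytoplasmic split Venus YFP fluorescence ratio reporting PPARg SRC-1 interaction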
Outline: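 HEK293T transiently transfected with PPARg and SRC-1 fused to Venus YFP fragments, compounds 8 h at 37C. Fixed, Draq5-stained cells imaged; nuclear/cytoplasmic 488 nm fluorescence ratio over at least 350 cells per image; gain fitted versus DMSO.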

With `COC(=O)c1sccc1S(=O)(=O)NC(=O)Nc1nc(C)nc(OC)n1` as the compound, how does the AC50 [1] read?
Its AC50 is inconclusive: 15.4 µM.

And the AC50 [2]?
The AC50 was inconclusive: 50 µM.

What about the AC50 [3] of the same compound?
Its AC50 is inconclusive: 46.9 µM.

And the AC50 [4]?
Its AC50 is inconclusive: 46.9 µM.

And the AC50 [5]?
Its AC50 is inconclusive: 46.1 µM.

And the outcome [5]?
Its outcome is “inactive”.

And the AC50 [6]?
The AC50 was inconclusive: 46.9 µM.

And the outcome [7]?
The outcome was “inactive”.

And the AC50 [8]?
Its AC50 is inconclusive: 0.452 µM.

And the AC50 [9]?
The AC50 was inconclusive: 46.9 µM.

Which results are given for `COP(=S)(OC)Oc1ccc(S(=O)(=O)N(C)C)cc1`?
AC50 [1]: inconclusive: 44.5 µM; AC50 [3]: inconclusive: 0.00789 µM; AC50 [5]: inconclusive: 23 µM; AC50 [10]: inconclusive: 23 µM; AC50 [8]: inconclusive: 46.1 µM; outcome [8]: inactive

For `Nc1ccc(Cl)cc1`, which AC50 [1] is on record?
Its AC50 is inconclusive: 25.4 µM and inconclusive: 46.1 µM.

What about the AC50 [2] of the same compound?
The AC50 was inconclusive: 51 µM.

And the outcome [2]?
The outcome was “inactive”.

And the AC50 [11]?
The AC50 was active: 2.33 µM.

And the AC50 [10]?
The AC50 was inconclusive: 67.5 µM.

What about the outcome [10] of the same compound?
Its outcome is “inactive”.

And the outcome [6]?
The outcome was “inactive”.

Which results are given for `C=CC(=O)OCC(COC(=O)C=C)(COC(=O)C=C)COC(=O)C=C`?
AC50 [1]: inconclusive: 1.93 µM; AC50 [12]: active: 73.8 µM; AC50 [3]: active: 16.6 µM; AC50 [5]: active: 57.9 µM; AC50 [6]: active: 13.3 µM; AC50 [8]: active: 21.3 µM; AC50 [9]: active: 46.1 µM

Which outcome [1] does the source give for `C=CC(=O)OCCCCCC(C)C` here?
Its outcome is “inactive”.

And the AC50 [2]?
Its AC50 is inconclusive: 50 µM.

What about the AC50 [11] of the same compound?
Its AC50 is inconclusive: 50 µM.

And the AC50 [12]?
Its AC50 is inconclusive: 100 µM.

And the AC50 [3]?
Its AC50 is inconclusive: 46.1 µM.

What about the AC50 [4] of the same compound?
Its AC50 is inconclusive: 46.1 µM and inconclusive: 58.2 µM.

What about the AC50 [5] of the same compound?
Its AC50 is inconclusive: 58.2 µM.

What about the outcome [5] of the same compound?
Its outcome is “inactive”.

And the outcome [10]?
Its outcome is “inactive”.

What about the AC50 [8] of the same compound?
The AC50 was inconclusive: 46.1 µM.

And the outcome [8]?
The outcome was “inactive”.

For `C[C@]12C=CC3=C4CCC(=O)C=C4CC[C@H]3[C@@H]1CC[C@@H]2O`, which AC50 [13] is on record?
The AC50 was active: 210 nM and active: 213 nM and active: 2.53 nM.

And the AC50 [14]?
The AC50 was active: 12.7 µM and active: 14.2 µM and active: 12.3 µM.

And the outcome [14]?
The outcome was “inactive”.

And the AC50 [2]?
The AC50 was inconclusive: 99.2 nM and active: 14.3 µM.

And the AC50 [11]?
Its AC50 is active: 12 µM and active: 12.5 µM and active: 12.6 µM.

What about the AC50 [15] of the same compound?
Its AC50 is inconclusive: 92.9 µM.
